Test results published in the supplement of paper PMC12823440, “Inhibitors supercharge kinase turnover through native proteolytic circuits” (Nature, 2025).
Structures can show the parent of a compound that is named as a salt. The list shows a part of the results. The calls rarely recur for the same compound in another form.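 In K562 cells expressing nanoluciferase-fused kinases, luminescence was recorded at 4 h intervals between 2 and 18 h, normalized as percent of control with DMSO at 100% and a positive control at 0%. A significant (2 sigma) signal drop marks a time point as decreased. The authors' rule for a hit is not shown and takes in more than the number of time points.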

The chains behind the UniProt entries cited, without tags or fusion partners. Where a name states a change or a piece, a line headed by the entry shows the natural chain unless it says otherwise.
UniProt P48729: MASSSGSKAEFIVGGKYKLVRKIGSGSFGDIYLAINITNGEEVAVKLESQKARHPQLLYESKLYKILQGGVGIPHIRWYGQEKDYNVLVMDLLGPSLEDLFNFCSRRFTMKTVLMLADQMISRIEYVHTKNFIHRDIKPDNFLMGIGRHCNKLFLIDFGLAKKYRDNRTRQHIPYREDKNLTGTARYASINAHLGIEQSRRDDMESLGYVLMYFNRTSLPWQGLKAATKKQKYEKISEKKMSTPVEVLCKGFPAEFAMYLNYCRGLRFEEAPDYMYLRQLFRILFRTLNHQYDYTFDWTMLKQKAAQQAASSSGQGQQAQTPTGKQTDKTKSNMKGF
UniProt P48730: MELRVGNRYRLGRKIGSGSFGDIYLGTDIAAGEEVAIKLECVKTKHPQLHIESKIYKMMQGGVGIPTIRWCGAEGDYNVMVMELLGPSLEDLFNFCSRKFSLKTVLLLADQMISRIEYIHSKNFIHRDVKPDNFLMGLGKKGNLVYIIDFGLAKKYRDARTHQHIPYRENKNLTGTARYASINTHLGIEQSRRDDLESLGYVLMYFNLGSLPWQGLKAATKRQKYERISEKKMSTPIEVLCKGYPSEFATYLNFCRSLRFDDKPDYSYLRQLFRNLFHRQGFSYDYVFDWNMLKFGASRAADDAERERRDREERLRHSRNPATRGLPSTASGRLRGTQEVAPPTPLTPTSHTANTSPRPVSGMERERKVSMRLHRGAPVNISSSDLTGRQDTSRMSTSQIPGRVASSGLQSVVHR
UniProt Q08345: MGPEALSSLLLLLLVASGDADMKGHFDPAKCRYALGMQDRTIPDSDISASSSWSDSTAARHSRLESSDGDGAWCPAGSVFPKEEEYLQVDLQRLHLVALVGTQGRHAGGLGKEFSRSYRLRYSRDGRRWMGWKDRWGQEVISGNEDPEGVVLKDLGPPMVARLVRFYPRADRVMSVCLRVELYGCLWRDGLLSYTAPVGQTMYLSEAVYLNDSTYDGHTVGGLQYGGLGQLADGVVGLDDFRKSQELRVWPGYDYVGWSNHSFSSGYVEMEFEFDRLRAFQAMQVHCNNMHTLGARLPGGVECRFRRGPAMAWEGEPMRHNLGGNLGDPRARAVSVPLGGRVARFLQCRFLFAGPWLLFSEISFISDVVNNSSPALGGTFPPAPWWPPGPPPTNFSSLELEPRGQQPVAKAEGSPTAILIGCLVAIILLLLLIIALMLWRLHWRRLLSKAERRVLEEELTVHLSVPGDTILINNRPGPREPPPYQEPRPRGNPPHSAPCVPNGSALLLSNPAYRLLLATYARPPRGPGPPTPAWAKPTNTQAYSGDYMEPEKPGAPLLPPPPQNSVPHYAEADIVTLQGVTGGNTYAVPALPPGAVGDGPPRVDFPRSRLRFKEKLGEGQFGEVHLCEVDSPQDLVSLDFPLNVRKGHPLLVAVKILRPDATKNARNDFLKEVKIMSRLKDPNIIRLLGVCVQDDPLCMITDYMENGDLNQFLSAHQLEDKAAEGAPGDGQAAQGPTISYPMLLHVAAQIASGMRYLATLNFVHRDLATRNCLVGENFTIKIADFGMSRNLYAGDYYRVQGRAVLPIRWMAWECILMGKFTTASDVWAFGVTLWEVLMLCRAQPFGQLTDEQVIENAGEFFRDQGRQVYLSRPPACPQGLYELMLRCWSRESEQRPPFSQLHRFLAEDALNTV
UniProt Q9Y463, whole entry, looked up: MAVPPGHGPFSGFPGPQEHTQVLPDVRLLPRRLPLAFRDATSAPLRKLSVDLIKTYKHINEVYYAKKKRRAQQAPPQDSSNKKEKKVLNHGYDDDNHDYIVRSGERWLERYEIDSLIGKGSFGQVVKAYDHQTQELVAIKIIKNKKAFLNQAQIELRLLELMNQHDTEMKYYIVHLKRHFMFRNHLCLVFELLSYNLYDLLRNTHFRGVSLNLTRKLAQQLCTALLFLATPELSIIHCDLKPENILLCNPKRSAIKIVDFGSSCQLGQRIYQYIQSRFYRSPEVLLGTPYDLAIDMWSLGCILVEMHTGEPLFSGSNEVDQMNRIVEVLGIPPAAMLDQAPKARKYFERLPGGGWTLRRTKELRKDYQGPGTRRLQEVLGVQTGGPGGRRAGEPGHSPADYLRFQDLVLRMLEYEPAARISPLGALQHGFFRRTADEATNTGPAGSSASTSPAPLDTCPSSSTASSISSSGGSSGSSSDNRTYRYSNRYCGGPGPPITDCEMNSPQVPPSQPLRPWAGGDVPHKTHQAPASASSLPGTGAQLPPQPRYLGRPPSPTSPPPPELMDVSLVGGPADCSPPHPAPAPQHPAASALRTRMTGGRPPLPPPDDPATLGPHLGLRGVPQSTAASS
UniProt Q92630: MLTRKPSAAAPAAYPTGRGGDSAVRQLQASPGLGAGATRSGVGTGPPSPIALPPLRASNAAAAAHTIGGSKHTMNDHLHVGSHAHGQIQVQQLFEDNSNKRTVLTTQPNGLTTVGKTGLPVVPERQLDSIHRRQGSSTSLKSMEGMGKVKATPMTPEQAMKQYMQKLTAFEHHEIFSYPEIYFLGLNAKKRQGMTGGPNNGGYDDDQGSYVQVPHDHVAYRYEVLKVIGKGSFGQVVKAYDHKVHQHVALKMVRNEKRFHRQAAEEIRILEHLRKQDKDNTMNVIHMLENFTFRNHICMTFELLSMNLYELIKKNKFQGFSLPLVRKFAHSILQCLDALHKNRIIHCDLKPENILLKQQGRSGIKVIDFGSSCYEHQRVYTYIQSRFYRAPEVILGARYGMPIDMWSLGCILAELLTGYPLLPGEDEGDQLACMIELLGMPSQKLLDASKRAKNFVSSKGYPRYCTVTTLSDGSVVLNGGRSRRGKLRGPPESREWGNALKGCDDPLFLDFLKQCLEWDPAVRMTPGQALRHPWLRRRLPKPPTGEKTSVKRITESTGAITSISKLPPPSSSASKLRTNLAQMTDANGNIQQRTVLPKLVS

Experiments:
Assay in all cases: number of time points (of 5) at which kinase-Nluc abundance scored as decreased, DMSO-normalised (count); higher = more persistent destabilization
Conditions in all cases: K562; 2-18 h
CSNK1A1 = CSNK1A1 (UniProt P48729)
CSNK1D = CSNK1D (UniProt P48730)
DDR1 = DDR1 (UniProt Q08345)
DYRK1B = DYRK1B (UniProt Q9Y463)
DYRK2 = DYRK2 (UniProt Q92630)
EGFR = EGFR (UniProt P00533)
EGFR_G719S = EGFR_G719S (UniProt P00533)
EGFR_G719S_T790M = EGFR_G719S_T790M (UniProt P00533)
EGFR_L718V = EGFR_L718V (UniProt P00533)
EGFR_L858R = EGFR_L858R (UniProt P00533)

Structure (SMILES) | number of time points (CSNK1A1) | number of time points (CSNK1D) | number of time points (DDR1) | number of time points (DYRK1B) | number of time points (DYRK2) | number of time points (EGFR) | number of time points (EGFR_G719S) | number of time points (EGFR_G719S_T790M) | number of time points (EGFR_L718V) | number of time points (EGFR_L858R)
CC1CCc2nc(N)c(C#N)c(-c3cccnc3)c2C1 (stereo not given) (10 µM) | 0 | 0 | 0 | 0 | 0 | 0 | 0 | 0 | 0 | 0
O=c1cc(O)cc(/C=C/c2ccc(O)c(O)c2)o1 [Hispidin] (10 µM) | 0 | 0 | 0 | 0 | 0 | 0 | 0 | 0 | 0 | 0
COc1ccc(CC(=O)Nc2nc3c(s2)CCc2ccccc2-3)cc1OC (10 µM) | 0 | 0 | 0 | 0 | 0 | 0 | 0 | 0 | 0 | 0
COCCO[C@@H]1[C@H](O)[C@@H](CO)O[C@H]1n1cnc2c(=O)[nH]c(N)nc21 [2′-O-(2-Methoxyethyl)guanosine] (10 µM) | 0 | 0 | 0 | 0 | 0 | 0 | 0 | 0 | 0 | 0
CN1C(=O)C(Cc2c[nH]c3ccccc23)NC1=S (stereo not given) [Necrostatin-1] (10 µM) | 0 | 0 | 0 | 0 | 0 | 0 | 0 | 0 | 0 | 0
CS(=O)(=O)c1ccc(-c2cnc(N)c(C(=O)Nc3ccccc3)n2)cc1 (10 µM) | 0 | 0 | 0 | 0 | 0 | 0 | 0 | 0 | 0 | 0
O=C(CNC(=O)c1ccc(-c2ccccc2)cc1)NC1CCCc2ccccc21 (stereo not given) [TAO Kinase inhibitor 1] (10 µM) | 0 | 0 | 0 | 0 | 0 | 0 | 0 | 0 | 0 | 0
Nc1ncnc2c1c(-c1ccc(Oc3ccccc3)cc1)nn2C1CCNCC1 [N-piperidine Ibrutinib (hydrochloride)] (10 µM) | 0 | 0 | 1 | 0 | 3 | 0 | 0 | 0 | 0 | 0
CCn1c(C(=O)N(C2CC2)C2CC2)cc2c3c(ncn3C)c(Nc3cc(C)n(C)n3)nc21 (10 µM) | 0 | 0 | 0 | 0 | 0 | 0 | 0 | 0 | 0 | 0
O=c1oc2cc(O)ccc2c2ccccc12 [Urolithin B] (10 µM) | 0 | 0 | 0 | 0 | 0 | 0 | 0 | 0 | 0 | 0
N[C@H](Cc1c[nH]c2ccccc12)C(=O)N/N=C/c1ccc2nccnc2c1 [Rhosin (hydrochloride)] (10 µM) | 0 | 0 | 0 | 0 | 0 | 0 | 0 | 0 | 0 | 0
OC(COc1ccc(C(F)(F)F)cc1)CN(Cc1ccccc1)Cc1ccccc1 (stereo not given) (2.5 µM) | 0 | 0 | 0 | 0 | 0 | 0 | 0 | 0 | 0 | 0
C=CC(=O)Nc1cc2c(Nc3ccc(OCc4ccccn4)c(Cl)c3)ncnc2cc1OCCN1CCOCC1 (10 µM) | 0 | 0 | 5 | 0 | 0 | 0 | 1 | 0 | 0 | 0
NCc1ccc(Nc2ncc(F)c(Nc3ccccc3)n2)cc1 (10 µM) | 0 | 0 | 0 | 0 | 0 | 0 | 0 | 0 | 0 | 0
CNc1nc(Nc2cnn(C3CCN(C4COC4)CC3F)c2Cl)ncc1C(F)(F)F (stereo not given) (10 µM) | 0 | 0 | 0 | 0 | 0 | 0 | 0 | 0 | 0 | 0
COc1cc(F)c(F)c(Nc2ccc(I)cc2F)c1NS(=O)(=O)C1(C[C@H](O)CO)CC1 [Refametinib] (10 µM) | 0 | 1 | 0 | 0 | 2 | 0 | 0 | 0 | 0 | 1

Copied from the list.
`NCc1ccc(Nc2ncc(F)c(Nc3ccccc3)n2)cc1` (10 µM) – number of time points (CSNK1D): 0
`O=c1cc(O)cc(/C=C/c2ccc(O)c(O)c2)o1` [Hispidin] (10 µM) – number of time points (EGFR_L718V): 0
